# Test results from patent US20230091810A1, “FIRST-IN-CLASS OF SHMT2 AND MTHFD2 INHIBITORS AS ANTITUMOR AGENTS” (Duquesne University of the Holy Spirit, priority 2017, published 2023).
# Some entries share one result that the patent states for a list of compounds. Some ranges recur; such a range may be that of the whole group of compounds.
# Experiments:
# [1] = system: H460 cells; experiment: targeted metabolomics with [2,3,3-2H]serine tracer, H460 cells; format: cell-based, human; details: 10 µM drug
# From the text: (§1) Identification of the mitochondrial enzyme target for AGF291, AGF320, and AGF347 by targeted metabolomics. […] The cells were processed for LC-MS analyses of total serine, and of M+3, M+2, M+1, and M+0 (unlabeled) serine (where M+n represents species with n deuterium atoms). The results with the drug-treated cells were compared to those for untreated cells. For WT HCT116 cells, the results were compared to those for SHMT2 KO, MTHFD2 KO, and SHMT1 KO cells (KO of SHMT2, MTHFD2, and SHMT1, respectively (20)). For H460 cells, controls included non-targeted control (NTC) and SHMT2 shRNA knockdown (KD) cells.
# (§2) Targeted Metabolomics. Targeted metabolomics were performed essentially as previously described (47, 53). Briefly, cells (H460, HCT116, MIA PaCa-2) (1 million cells /dish for vehicle-treated samples, 1.5 million cells/dish for drug-treated samples) were seeded in triplicate 60 mm dishes in 5 ml of folate-free RPMI (contains glycine and unlabeled serine) supplemented with 10% dialyzed fetal bovine serum, 1% penicillin/streptomycin, 2 mM L-glutamine, and 25 nM leucovorin. Cells were allowed to adhere for 24 h. […] After 16 h, the cells were washed with PBS (3×), the media was replaced with folate- and serine-free culture media (containing glycine) supplemented with 10% dialyzed fetal bovine serine, 25 nM leucovorin, and [2,3,3-^2H]serine (250 µM), including 10 µM drug or DMSO vehicle. The cells were incubated for 24 h. All incubations were at 37° C. with 5% CO2. The media was aspirated, and cells were washed (3×) rapidly (< 30 s) with 5 mL ice-cold PBS; metabolism was quickly quenched with methanol:water (80:20) at -80° C. Cells were allowed to rock on dry ice for 10 min to cover the entire dish with 80:20 methanol:water (at -80° C.), then harvested by scraping and pipetting into 1.5 mL Eppendorf tubes. The tubes were centrifuged (4° C., 14000 RPM, 10 min) to fully extract metabolites into the methanol:water supernatant. The protein pellet was used for normalization. The supernatants were collected and analyzed by reversed-phase ion-pairing chromatography coupled with negative-mode electrospray-ionization high-resolution mass spectrometry on a stand-alone Orbitrap (ThermoFisher Exactive). Raw metabolite values were adjusted to correct for normal ion distributions and normalized to total proteins from the post-extraction pellet by solubilizing with 0.5 N NaOH and using the Folin-phenol protein method (13). Values below the limit of detection were assigned a value of 100 for normalization. Results for drug-treated and SHMT2 KD cells were normalized to vehicle-treated WT ± formate or NTC ± formate samples, as appropriate.
# [2] = system: HCT116 cells; experiment: targeted metabolomics with [2,3,3-2H]serine tracer, HCT116 cells; format: cell-based, human; details: 10 µM drug; for M+3 serine fraction (% of total serine): WT HCT116 cells, [2,3,3-2H]serine
# From the text: as §1, §2
Compound,increase of AICAR relative to untreated controls [1],increase of GAR relative to untreated controls [1],reduction of dTTP pools [1],decreased M+2 serine compared to WT cells [2],M+3 serine fraction (% of total serine) [2]
"(2-amino-4-oxo-3,4-dihydro-5H-pyrrolo[3,2-d]pyrimidin-5-yl)butyl)-2-fluorobenzoyl)-L-glutamic acid [AGF347]",40-1500 fold,10-2300 fold,60-70%,2-3 fold,55-60%
Nc1nc2ccn(CCCc3ccc(C(=O)N[C@@H](CCC(=O)O)C(=O)O)cc3)c2c(=O)[nH]1 [AGF291],–,–,60-70%,2-3 fold,55-60%
